Patent US20240100178A1, “EGFR TARGETING PEPTIDE CONJUGATE” (Chapman University, priority 2022, published 2024)

Test system: MDA-MB-231
Assay: Cytotoxicity MTT/MTS assay, MDA-MB-231
Format: cell-based
Conditions: MDA-MB-231 (TNBC) cells
Source text: FIG. 4A-C depicts the cytotoxicity of PDoxC, obtained by […], for three cell lines (MDA-MB-231 [FIG. 4A], MDA-MB-468 [FIG. 4B], and MCF-10A [FIG. 4C]). Cell viability is plotted against drug concentration (PDoxC or Dox) to obtain IC50 values. Each experimental point was done in duplicates or triplicates and the experiment was repeated once.
Next, the cytotoxicity of the peptide 31 PDoxC was compared to the DOX (free drug) using MTS assay (FIG. 4A-C). Three cell lines were used, two TNBC cell lines (MDA-MB-231 and MDA-MB-468) and one non-cancerous mammary epithelial MCF-10A cell line. […] This peptide 31 PDoxC is very promising as this level of selectivity has never been observed with previously reported peptide-drug conjugates.

**Q.** `COc1cccc2c1C(=O)c1c(O)c3c(c(O)c1C2=O)C[C@@](O)(C(=O)CO)C[C@@H]3O[C@H]1C[C@H](N)[C@H](O)[C@H](C)O1` [Free Dox, doxorubicin, reference compound] was tested. Which IC50 did it give?
**A.** The IC50 was 1870 nM.
